PubChem BioAssay AID504784 | Drosophila RNAi Screening Center | 2011
The deposit covers about 17,000 reagents; this is a random part of those with a known target gene and a result. 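Each column is one replicate's B-score; the combined score over replicates was not deposited, so single values may mislead.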 The numbers tell different reagents against one gene apart. Names joined by + are all predicted targets of the reagent. Reagent sequences are not shown.

Test: 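Genome-wide knock-down for genes giving too much or too little stored lipid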 (primary screen)
Cell system: Drosophila Kc167 embryonic cells
Knock-down reagent: long dsRNA against Drosophila genes, about 250 ng dsRNA per well
Duration: 4 days
Treatment: cells fed 400 µM oleic acid bound to BSA
Read-out: 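Microscope images give a droplet-to-nucleus area ratio, taken as log and converted to a screen-wide B-score; higher values mean greater lipid storage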
Direction: droplet/nuclear area B-score: higher = more stored lipid (overstorage)

target gene | dsRNA no. | droplet/nuclear area B-score, replicate 1 | droplet/nuclear area B-score, replicate 2 | droplet/nuclear area B-score, replicate 3
snz | 1 | -0.238 | -0.249 | –
CG18178 | 1 | 1.42 | 1.87 | –
gkt | 1 | 0.511 | -0.841 | –
phtf | 1 | 0.568 | -0.58 | –
Sec61gamma | 1 | 0.0782 | -1.23 | –
CG8031 | 1 | 0.935 | 0.134 | –
CG13102 | 1 | -2.42 | 0.246 | –
Strump | 1 | -0.856 | 0.34 | –
PCNA2 | 1 | -2.1 | -0.0838 | –
CG10669 | 1 | -0.865 | 1.83 | –
dgt6 | 1 | -0.62 | 0.681 | –
CG6659 | 1 | -1.74 | 1.16 | –
Mic26-27 | 1 | 0.792 | -0.473 | –
CG12491 + CG34105 | 1 | 0.191 | 0.274 | –
CG12491 + CG34105 | 2 | -0.521 | 1.21 | –
CG15877 | 1 | -0.929 | 0.0834 | –
CG30187 | 1 | 0.28 | -0.197 | –
Sp212 | 1 | -0.863 | -1.49 | –
CG33341 | 1 | -0.282 | -1.07 | –
CR14499 (retired record) | 1 | 0.46 | 0.254 | –
gskt | 1 | -2.3 | -1.22 | –
hui | 1 | 1.53 | 0.194 | –
Atpalpha | 1 | 2.61 | 2.44 | –
CG14562 | 1 | 0.391 | -0.122 | –
CG9886 | 1 | -0.703 | 0.227 | –
bsh | 1 | -1.73 | -1.04 | –
Ero1L | 1 | -0.426 | – | –
CG15209 | 1 | -1.5 | 1.27 | -0.0331
Rgl | 1 | 0.133 | 0.0023 | –
Cpr47Eg | 1 | -0.881 | 0.69 | –
Fie | 1 | -1.61 | 0.542 | –
Art3 | 1 | -0.0202 | -0.439 | –
RhoGAP19D | 1 | 2.03 | -0.0557 | –
RhoGAP19D | 2 | 0.403 | -0.947 | –
sha | 1 | 0.0386 | -1.94 | –
CG1582 | 1 | 0.377 | 0.173 | -0.857
osa | 1 | 0.616 | 2.45 | –
dnk | 1 | 1.42 | 2.82 | –
CG16965 | 1 | -0.156 | -1.45 | –
nuf | 1 | -1.81 | 0.495 | –
nuf | 2 | -1.35 | 0.374 | –
nuf | 3 | 0.366 | 1.07 | –
CG30268 | 1 | -0.706 | -0.614 | –
Cpr23B | 1 | 2.5 | -0.249 | –
CG13747 | 1 | -0.00267 | -0.746 | –
Ir94f | 1 | 0.342 | 0.733 | –
CG4278 | 1 | 0.851 | 0.896 | –
Vps35 | 1 | -0.529 | 0.339 | –
qsm | 1 | 0.505 | 0.103 | –
qsm | 2 | 0.499 | 0.759 | –
CG1304 | 1 | 2.02 | -1.34 | –
Cbp20 | 1 | -2.71 | -1.2 | –
Obp49a | 1 | 1.01 | 0.911 | –
Daao2 | 1 | 0.203 | 1.95 | –
nej | 1 | -1.49 | -0.542 | -2.7
nej | 2 | -0.0439 | -0.606 | -1.2
Cpr49Ae | 1 | 2.26 | 0.315 | –
dpr16 | 1 | -0.000326 | -0.0574 | –
dpr16 | 2 | 1.6 | 1.26 | –
CG8173 | 1 | -0.237 | 0.399 | –
Lsp1beta | 1 | -0.241 | -0.311 | –
CG11300 | 1 | -0.846 | 1.13 | –
l(2)34Fc | 1 | 2.82 | -0.612 | –
CG6761 | 1 | -0.0327 | 1.02 | –
Nedd8 | 1 | 0.44 | 0.0172 | –
CG6144 | 1 | 0.428 | -1.55 | –
CadN | 1 | -1.24 | 0.586 | –
CR42545 | 1 | 3.03 | -0.575 | –
mRpS23 | 1 | 0.373 | 2.07 | –
retm | 1 | -1.84 | 0.822 | –
Or69a | 1 | 0.0201 | -0.116 | –
Tsen2 | 1 | -0.185 | -0.199 | –
ergic53 | 1 | -0.0174 | -0.0169 | –
Mapmodulin | 1 | -0.0225 | – | –
CG34444 | 1 | 1.42 | 0.034 | –
CG18605 | 1 | -2.45 | – | –
Sptz | 1 | -0.038 | -1.84 | –
Nach | 1 | 1.42 | -0.747 | –
CG42813 + CG42814 | 1 | -0.791 | 5.96 | –
CG42813 + CG42814 | 2 | -2.11 | -0.66 | –
RpL37-2 | 1 | 0.71 | 0.154 | –
mEFTs | 1 | -1.4 | -0.125 | –
Pxn | 1 | -1.77 | -0.667 | -0.624
AdipoR | 1 | 0.835 | 0.405 | –
CG10600 | 1 | -2.45 | 0.748 | –
CG4325 | 1 | -1.98 | -2.94 | –
CG4325 | 2 | 1.02 | 0.953 | –
Ltn1 | 1 | -1.94 | 0.382 | -0.0754
Ltn1 | 2 | 0.161 | -0.0501 | –
Cyp4d2 | 1 | -1.55 | -1.02 | –
CG8850 | 1 | 0.661 | -0.514 | –
CG2145 | 1 | -0.734 | 0.13 | -1.42
CG34125 | 1 | -0.294 | 0.753 | –
CG32720 | 1 | 4.38 | 4.16 | –
IntS8 | 1 | -0.674 | 0.0242 | –
CG14990 | 1 | 0.757 | -0.135 | –
Adgf-B | 1 | -0.431 | -1.06 | –
ubl | 1 | -0.0442 | 0.575 | –
CG31524 | 1 | -0.107 | -0.705 | –
Abca3 | 1 | -0.589 | 0.277 | –
nonC | 1 | 2.71 | 0.0963 | 0.444
nonC | 2 | -0.899 | -1.38 | –
CG14369 | 1 | 0.859 | 1.49 | –
CG18473 | 1 | 1.23 | 1 | –
gsb | 1 | -0.0246 | -1.5 | –

Limited to “droplet/nuclear area B-score, replicate 1” (8 entries from above):
IntS8: -0.674
CG14990: 0.757
Adgf-B: -0.431
ubl: -0.0442
CG31524: -0.107
Abca3: -0.589
nonC #1: 2.71
nonC #2: -0.899
